No constants are given. Whether binding was seen depends on the method and setting. Some results given as binding are weak or reduced against the parent protein; the word gives no strength. Tags and fused reporters may be left off the sequences shown.
Target: T1, mEGFP-SRSF2, Q01130
T1 chain: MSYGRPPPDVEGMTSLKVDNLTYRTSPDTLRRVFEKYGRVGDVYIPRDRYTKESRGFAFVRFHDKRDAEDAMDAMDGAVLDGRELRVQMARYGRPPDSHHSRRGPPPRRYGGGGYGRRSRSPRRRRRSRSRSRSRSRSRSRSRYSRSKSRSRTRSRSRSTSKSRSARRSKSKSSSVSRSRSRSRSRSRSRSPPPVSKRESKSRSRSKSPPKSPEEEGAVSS
Assay: native gel or EMSA; native-PAGE of the purified proteins; both purified
Conditions: remark: other sources report otherwise

binding: binds
B1: mEGFP-SRSF2, Q01130 1-221 (natural protein)
chain: T1 chain
